From the supplement of paper PMC11006884 come the findings set out here.

The chains behind the UniProt entries cited, without tags or fusion partners. Where a name states a change or a piece, a line headed by the entry shows the natural chain unless it says otherwise.
UniProt P21283, whole entry: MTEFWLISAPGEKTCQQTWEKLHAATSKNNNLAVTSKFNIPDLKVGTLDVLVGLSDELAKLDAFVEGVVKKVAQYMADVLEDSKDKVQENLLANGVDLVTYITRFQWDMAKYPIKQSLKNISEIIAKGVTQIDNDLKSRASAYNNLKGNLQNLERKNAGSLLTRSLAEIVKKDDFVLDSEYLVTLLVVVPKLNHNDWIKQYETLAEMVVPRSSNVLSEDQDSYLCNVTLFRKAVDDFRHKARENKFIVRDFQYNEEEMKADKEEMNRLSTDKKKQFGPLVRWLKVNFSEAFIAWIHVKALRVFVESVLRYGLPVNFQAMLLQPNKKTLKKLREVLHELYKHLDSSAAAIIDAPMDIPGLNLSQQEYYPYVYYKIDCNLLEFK
UniProt P21333, whole entry, looked up: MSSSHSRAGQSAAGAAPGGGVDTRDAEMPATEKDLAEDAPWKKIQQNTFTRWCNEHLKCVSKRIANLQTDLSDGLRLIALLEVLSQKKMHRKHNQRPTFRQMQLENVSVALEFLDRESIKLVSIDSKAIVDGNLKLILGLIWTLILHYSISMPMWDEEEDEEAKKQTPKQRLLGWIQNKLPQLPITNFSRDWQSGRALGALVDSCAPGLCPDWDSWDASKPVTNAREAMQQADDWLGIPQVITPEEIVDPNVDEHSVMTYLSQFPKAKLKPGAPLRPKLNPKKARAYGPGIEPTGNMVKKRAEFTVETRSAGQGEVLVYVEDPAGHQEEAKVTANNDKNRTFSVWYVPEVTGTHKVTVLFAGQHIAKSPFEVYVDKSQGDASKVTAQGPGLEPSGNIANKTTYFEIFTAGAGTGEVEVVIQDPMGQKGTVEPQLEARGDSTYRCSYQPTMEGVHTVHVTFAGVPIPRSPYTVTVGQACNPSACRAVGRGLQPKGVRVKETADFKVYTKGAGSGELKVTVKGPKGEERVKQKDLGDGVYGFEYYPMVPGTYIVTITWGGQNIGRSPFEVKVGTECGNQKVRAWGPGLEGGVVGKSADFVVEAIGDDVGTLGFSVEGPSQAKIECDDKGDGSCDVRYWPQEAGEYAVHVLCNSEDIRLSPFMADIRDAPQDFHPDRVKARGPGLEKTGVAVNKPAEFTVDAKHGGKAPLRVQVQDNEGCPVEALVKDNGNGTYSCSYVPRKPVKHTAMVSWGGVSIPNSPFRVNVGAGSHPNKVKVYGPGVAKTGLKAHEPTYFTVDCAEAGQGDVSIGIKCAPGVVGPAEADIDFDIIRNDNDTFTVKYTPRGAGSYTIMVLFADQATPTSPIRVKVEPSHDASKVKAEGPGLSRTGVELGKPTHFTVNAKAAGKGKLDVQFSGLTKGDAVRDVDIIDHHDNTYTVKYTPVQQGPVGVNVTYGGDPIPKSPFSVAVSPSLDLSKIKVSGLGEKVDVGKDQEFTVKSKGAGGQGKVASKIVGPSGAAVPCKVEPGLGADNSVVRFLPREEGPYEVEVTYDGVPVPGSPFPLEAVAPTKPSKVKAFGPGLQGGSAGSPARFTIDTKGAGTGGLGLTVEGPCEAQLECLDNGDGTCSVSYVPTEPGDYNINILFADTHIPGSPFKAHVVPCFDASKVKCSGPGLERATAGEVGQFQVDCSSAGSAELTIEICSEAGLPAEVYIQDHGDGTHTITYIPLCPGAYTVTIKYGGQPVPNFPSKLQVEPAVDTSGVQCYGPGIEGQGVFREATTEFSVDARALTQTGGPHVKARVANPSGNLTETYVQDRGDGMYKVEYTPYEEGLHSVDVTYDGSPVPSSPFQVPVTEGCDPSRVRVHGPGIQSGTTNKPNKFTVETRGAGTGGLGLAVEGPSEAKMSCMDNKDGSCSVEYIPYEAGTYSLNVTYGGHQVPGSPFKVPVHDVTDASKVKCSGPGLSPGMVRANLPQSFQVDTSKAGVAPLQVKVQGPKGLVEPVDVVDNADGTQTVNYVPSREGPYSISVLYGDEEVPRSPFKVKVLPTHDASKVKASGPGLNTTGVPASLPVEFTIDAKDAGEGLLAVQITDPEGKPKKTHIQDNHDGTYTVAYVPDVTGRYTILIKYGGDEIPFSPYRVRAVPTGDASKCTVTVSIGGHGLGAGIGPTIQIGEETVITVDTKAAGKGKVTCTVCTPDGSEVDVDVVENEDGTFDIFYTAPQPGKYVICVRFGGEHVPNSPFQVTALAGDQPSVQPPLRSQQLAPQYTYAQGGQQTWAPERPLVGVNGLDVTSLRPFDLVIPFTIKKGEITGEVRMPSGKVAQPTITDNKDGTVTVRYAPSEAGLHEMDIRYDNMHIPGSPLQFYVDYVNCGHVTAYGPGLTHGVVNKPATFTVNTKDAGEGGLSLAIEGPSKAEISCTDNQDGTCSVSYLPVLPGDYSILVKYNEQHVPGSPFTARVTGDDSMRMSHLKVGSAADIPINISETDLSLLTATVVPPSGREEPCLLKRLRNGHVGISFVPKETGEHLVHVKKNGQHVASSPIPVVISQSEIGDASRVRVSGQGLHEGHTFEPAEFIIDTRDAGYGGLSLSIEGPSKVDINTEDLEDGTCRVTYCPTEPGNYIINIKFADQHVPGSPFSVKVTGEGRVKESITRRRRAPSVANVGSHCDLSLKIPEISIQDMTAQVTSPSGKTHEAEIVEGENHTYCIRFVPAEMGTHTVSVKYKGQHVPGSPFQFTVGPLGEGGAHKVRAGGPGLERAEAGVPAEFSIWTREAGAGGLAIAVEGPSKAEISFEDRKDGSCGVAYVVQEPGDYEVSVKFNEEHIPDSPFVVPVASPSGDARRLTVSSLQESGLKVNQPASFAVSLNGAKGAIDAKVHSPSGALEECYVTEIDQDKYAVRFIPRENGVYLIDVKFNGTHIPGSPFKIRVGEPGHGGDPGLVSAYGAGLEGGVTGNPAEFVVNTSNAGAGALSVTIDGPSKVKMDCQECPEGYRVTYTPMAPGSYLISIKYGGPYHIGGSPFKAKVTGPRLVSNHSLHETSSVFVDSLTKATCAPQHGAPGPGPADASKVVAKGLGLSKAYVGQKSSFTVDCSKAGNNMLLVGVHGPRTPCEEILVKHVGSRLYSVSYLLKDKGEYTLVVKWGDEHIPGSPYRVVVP
UniProt P29590: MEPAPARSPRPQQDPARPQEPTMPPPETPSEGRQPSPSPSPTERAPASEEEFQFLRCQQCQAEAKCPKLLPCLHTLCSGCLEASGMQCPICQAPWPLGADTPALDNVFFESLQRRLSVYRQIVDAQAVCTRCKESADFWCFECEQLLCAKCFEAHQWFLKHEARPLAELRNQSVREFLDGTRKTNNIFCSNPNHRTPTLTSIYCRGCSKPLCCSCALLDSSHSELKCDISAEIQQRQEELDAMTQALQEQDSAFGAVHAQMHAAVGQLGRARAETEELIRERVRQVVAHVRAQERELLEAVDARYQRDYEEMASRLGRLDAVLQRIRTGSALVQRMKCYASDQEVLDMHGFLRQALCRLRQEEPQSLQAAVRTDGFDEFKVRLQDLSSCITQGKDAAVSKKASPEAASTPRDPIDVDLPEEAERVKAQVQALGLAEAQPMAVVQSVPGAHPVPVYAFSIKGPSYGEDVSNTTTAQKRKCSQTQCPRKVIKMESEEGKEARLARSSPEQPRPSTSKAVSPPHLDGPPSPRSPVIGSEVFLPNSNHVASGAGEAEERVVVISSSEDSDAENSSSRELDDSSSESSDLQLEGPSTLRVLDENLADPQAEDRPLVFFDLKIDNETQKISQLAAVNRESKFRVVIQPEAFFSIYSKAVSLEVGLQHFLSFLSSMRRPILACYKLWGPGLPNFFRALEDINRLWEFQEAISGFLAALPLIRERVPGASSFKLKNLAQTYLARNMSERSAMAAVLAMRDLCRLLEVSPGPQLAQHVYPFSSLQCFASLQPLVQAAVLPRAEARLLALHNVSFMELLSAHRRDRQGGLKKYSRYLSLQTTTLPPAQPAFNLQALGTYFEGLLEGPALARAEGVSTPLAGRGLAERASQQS
UniProt P30044: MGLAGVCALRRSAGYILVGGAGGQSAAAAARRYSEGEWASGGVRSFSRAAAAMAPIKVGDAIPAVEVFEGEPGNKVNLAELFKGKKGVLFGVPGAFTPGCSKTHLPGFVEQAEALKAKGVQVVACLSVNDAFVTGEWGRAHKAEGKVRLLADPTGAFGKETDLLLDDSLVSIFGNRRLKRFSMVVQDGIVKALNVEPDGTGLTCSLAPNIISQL
UniProt P19174: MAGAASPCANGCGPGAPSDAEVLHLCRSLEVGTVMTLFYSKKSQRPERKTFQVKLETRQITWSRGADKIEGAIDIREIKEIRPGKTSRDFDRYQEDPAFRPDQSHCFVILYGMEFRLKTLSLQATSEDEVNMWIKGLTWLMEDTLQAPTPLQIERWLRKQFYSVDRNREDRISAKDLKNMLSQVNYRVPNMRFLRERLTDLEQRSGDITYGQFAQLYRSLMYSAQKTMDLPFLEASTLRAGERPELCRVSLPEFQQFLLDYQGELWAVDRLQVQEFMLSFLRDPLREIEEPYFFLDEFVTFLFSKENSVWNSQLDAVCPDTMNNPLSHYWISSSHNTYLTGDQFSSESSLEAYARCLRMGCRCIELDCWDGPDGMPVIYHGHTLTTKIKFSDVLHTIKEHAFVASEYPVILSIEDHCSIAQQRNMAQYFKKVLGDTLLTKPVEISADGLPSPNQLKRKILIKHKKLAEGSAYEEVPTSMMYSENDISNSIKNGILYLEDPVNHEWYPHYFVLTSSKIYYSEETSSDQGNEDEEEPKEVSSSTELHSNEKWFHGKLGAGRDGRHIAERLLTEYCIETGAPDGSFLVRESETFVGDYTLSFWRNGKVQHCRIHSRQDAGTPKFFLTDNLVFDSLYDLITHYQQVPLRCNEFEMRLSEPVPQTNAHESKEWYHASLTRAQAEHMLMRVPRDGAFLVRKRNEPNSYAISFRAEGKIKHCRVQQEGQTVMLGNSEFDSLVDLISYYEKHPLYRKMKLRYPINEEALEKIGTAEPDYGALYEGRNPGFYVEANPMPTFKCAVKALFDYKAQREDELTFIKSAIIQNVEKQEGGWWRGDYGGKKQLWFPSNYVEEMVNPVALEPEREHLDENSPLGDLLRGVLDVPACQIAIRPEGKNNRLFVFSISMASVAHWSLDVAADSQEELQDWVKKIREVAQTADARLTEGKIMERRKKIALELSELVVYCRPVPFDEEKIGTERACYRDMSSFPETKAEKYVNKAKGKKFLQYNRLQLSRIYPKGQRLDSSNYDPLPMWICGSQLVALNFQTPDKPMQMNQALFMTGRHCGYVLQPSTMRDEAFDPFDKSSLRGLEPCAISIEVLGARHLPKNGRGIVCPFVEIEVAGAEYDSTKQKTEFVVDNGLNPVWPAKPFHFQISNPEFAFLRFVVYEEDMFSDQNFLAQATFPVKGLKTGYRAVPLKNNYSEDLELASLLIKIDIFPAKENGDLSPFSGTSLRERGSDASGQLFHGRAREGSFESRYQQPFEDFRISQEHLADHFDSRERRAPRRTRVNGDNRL
UniProt P17844: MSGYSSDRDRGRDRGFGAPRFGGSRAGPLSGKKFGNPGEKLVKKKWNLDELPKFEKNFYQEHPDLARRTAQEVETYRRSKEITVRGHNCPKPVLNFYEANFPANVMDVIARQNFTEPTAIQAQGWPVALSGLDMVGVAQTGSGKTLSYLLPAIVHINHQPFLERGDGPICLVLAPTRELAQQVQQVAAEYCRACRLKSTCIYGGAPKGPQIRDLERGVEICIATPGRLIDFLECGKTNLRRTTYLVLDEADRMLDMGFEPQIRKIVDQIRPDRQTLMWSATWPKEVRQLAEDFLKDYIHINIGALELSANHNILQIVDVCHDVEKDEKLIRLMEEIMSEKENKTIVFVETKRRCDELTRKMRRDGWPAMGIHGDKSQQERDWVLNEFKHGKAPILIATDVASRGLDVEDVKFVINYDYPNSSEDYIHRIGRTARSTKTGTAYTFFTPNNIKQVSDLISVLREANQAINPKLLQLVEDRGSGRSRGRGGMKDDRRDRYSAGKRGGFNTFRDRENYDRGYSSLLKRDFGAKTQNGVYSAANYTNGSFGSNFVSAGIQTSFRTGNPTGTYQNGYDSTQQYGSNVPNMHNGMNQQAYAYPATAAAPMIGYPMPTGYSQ
UniProt P26599: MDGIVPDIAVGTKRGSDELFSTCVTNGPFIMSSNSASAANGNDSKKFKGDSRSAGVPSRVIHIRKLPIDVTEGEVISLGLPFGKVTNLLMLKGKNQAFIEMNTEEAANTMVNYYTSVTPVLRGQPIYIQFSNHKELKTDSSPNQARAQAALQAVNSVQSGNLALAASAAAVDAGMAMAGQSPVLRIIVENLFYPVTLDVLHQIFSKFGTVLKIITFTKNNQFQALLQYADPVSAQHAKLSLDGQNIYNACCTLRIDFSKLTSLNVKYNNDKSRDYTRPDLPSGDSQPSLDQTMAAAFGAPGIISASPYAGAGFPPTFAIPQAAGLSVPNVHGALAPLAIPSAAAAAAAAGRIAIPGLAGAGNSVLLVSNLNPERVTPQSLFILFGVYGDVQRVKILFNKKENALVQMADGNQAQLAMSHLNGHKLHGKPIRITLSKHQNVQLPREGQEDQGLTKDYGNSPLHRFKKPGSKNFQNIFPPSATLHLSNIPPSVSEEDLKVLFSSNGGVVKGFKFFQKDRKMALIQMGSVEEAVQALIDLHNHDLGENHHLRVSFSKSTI

This list holds what a sample rich in targets with a hit left over. This is a noisy data set. This is a selection; strong and weak results do not stand in their true shares.

Compound in the assay: COC(=O)/C=C/c1ccccc1 [methyl cinnamate]
Nature of the assay: log2 ratio of iodoacetamide-alkyne labeling of the cysteine site, DMSO over compound (competition); higher = stronger covalent engagement of the cysteine by the compound, active = 1 or more. As to conditions: 500 µM; treatment time 1 h; system: HEK293T cell lysate. In outline: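 Reporter intensities give each cysteine's log2 competition ratio as the mean of control channels over the mean of compound channels. The samples were HEK293T lysate (2 mg/mL) given vehicle or electrophile (500 µM, 1 h, ambient temperature), then iodoacetamide alkyne (1 h), followed by click coupling to sCIP-TMT reagents, pooling, trypsin digestion overnight at 37 °C, streptavidin enrichment, acid elution, Orbitrap Eclipse LC-MS/MS with FAIMS and FragPipe quantification. Duplicate channels and three replicates were run, and cysteines quantified in only one replicate were discarded.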

As to TCEA1 C271 (UniProt P23193), the “log2 ratio of iodoacetamide-alkyne labeling” value (“log2 ratio” below) was inactive: 0.081.
On to ATP6V1C1 C15 (UniProt P21283), for which the “log2 ratio” value is inactive: -0.101.
For the target FLNA C2543 (UniProt P21333), the “log2 ratio” value was inactive: 0.35.
For the target NF1 C383 (UniProt P21359), the “log2 ratio” value was inactive: 0.398.
Consider UniProt P28482_C166, for which the “log2 ratio” value is inactive: 0.177.
On to GART C466 (UniProt P22102), for which the “log2 ratio” value was inactive: 0.0586.
As to SON C2380 (UniProt P18583), the “log2 ratio” value is inactive: 0.0647.
As for PML C227 (UniProt P29590), the “log2 ratio” value was inactive: 0.159.
As for FLNA C1453 (UniProt P21333), the “log2 ratio” value is inactive: 0.193.
Consider UniProt P25705_C244, for which the “log2 ratio” value is inactive: 0.0556.
The result for RPL10 C105 (UniProt P27635) reads inactive: 0.219.
Take DNMT1 C1478 (UniProt P26358): the “log2 ratio” value was inactive: 0.242.
Consider IMPA1 C24 (UniProt P29218), for which the “log2 ratio” value was inactive: 0.116.
Take RRM1 C492 (UniProt P23921): the “log2 ratio” value is inactive: 0.285.
In the case of GART C41 (UniProt P22102), the “log2 ratio” value was inactive: 0.145.
For PRDX5 C100 (UniProt P30044), the “log2 ratio” value is inactive: 0.177.
Consider PRDX3 C229 (UniProt P30048), for which the “log2 ratio” value is inactive: 0.483.
The result for ABCD3 C472 (UniProt P28288) reads inactive: 0.186.
As to WARS C62 (UniProt P23381), the “log2 ratio” value was inactive: 0.0653.
Turning to DTYMK C163 (UniProt P23919), the “log2 ratio” value was inactive: 0.128.
In the case of ACAT1 C196 (UniProt P24752) it was inactive: 0.0906; in that of EIF2S2 C302 (UniProt P20042), inactive: 0.141; in that of PLCG1 C976 (UniProt P19174), inactive: 0.433.
Regarding UniProt P26639_C107, the “log2 ratio” value is inactive: -0.497.
On to DDX5 C234 (UniProt P17844), for which the “log2 ratio” value is inactive: 0.163.
The result for TCP1 C296 (UniProt P17987) reads inactive: -0.177; that for HNRNPA2B1 C50 (UniProt P22626), inactive: 0.169; that for GLDC C795 (UniProt P23378), inactive: -0.116.
Regarding PRDX5 C204 (UniProt P30044), the “log2 ratio” value was inactive: -0.0349.
In the case of FLNA C2107 (UniProt P21333) it was inactive: 0.132; in that of CSRP1 C167 (UniProt P21291), inactive: 0.37; in that of PTBP1 C250 (UniProt P26599), inactive: 0.025.
UniProt P28482_C254: the “log2 ratio” value is inactive: -0.211.
Regarding RCC1 C198 (UniProt P18754), the “log2 ratio” value is inactive: 0.0456.
Regarding CAST C661 (UniProt P20810), the “log2 ratio” value is inactive: 0.352.
The result for LIG1 C532 (UniProt P18858) reads inactive: 0.258; that for SON C1551 (UniProt P18583), inactive: 0.291.
